# Measured values as given in PMC6925144, “A prospective compound screening contest identified broader inhibitors for Sirtuin 1” (Scientific Reports, 2019).
# Chains of the proteins cited; added tags and fusions are not shown. Residues count along the entry.
# UniProt Q96EB6, 2-747 limits assumed: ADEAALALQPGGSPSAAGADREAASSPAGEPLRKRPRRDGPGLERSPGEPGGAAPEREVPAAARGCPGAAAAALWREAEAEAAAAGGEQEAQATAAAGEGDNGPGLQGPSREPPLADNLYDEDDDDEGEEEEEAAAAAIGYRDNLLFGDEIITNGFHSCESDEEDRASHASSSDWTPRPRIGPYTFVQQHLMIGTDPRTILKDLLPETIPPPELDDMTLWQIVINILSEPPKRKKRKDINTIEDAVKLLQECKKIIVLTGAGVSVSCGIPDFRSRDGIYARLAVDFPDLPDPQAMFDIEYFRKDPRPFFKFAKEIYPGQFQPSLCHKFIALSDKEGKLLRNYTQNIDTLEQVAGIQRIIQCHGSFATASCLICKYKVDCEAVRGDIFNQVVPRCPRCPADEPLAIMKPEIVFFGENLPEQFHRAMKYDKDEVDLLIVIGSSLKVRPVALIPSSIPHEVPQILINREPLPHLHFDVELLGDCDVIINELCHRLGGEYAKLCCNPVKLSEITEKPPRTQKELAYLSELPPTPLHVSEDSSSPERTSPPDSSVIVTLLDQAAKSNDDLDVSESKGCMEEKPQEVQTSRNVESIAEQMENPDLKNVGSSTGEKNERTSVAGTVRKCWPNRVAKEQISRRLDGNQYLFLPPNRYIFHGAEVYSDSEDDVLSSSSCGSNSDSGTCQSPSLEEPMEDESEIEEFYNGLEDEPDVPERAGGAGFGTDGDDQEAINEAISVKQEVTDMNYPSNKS
# Over roughly 3,200 compounds, “TSA(with NAD+) / Primary screening (TSA) / delta Tm (K)” has its median near -0.04; the highest 2% begin near 0.37. The list shows a part of the results.
# Target: NAD-dependent deacetylase Sirtuin 1 (human, UniProt Q96EB6)
# Assay: primary screen, delta tm
# Set-up: single well (n = 1, as 'the same TSA')
# Details: 10 µM
row,Structure (SMILES),TSA(with NAD+) / Primary screening (TSA) / delta Tm (K)
1,O=c1cc(CSc2nnc(-c3ccccc3)o2)c2cc3c(cc2o1)CCC3,-0.01
2,COc1ccc(/C=C2/Oc3cc(O)ccc3C2=O)c(OC)c1,0.12
3,O=C(c1ccccc1)C1CCN(c2ncnc3c2oc2ccccc23)CC1,-0.03
4,NC(=O)NCc1ccc(C(=O)Nc2nc(-c3c[nH]c(C(N)=O)c3)cs2)cc1,0.11
5,Cc1nc(C)c(C(=O)C2=C(O)C(=O)N(CCCN3CCOCC3)C2c2ccc(Cl)cc2)s1 (centres unmarked),0.05
6,NC(=O)c1oc2ccccc2c1NC(=O)Cc1ccc(Cl)c(Cl)c1,0.12
7,CCCOc1ccc(C2C(C(=O)c3ccc(C)o3)=C(O)C(=O)N2CCCN2CCOCC2)cc1 (centres unmarked),0.06
8,O=C(CCOc1ccccc1)Nc1ccc(N2CCN(Cc3ccccc3)CC2)cc1,0.09
9,O=C(NC1CCCCCC1)c1ccc2c(c1)CC(c1ccccc1)OC2=O (centres unmarked),-0.01
10,CC1CCC(C(N)=O)CN1c1ncnc2ccsc12 (centres unmarked),0.05
11,CC1(C)C(=O)Nc2ccccc2N1C(=O)CNc1cccc2c1CCCC2,-0.01
12,CC1(c2cnccn2)NC(=O)NC1=O (centres unmarked),-0.19
13,CC(=O)CN1C(=O)c2ccccc2C1=O,0.09
14,Cc1nc(-c2ccc([N+](=O)[O-])cc2)cs1,-0.03
15,O=C(CC1OC(=O)c2ccccc21)Nc1ccc2c(c1)Cc1ccccc1-2 (centres unmarked),0.05
16,N#Cc1ncn(-c2ncnc3ccsc23)n1,-0.03
17,Cc1ccc(-c2csc3ncnc(N4CCN(C(=O)Cc5nc(C)cs5)CC4)c23)cc1,0.03
18,FC(F)(F)C1CCCN(c2nsc3ccccc23)C1 (centres unmarked),-0.23
19,CCC1(c2ccc(F)cc2)NC(=O)N(CC(=O)Nc2ccc(C(N)=O)cc2)C1=O (centres unmarked),-0.18
20,O=C1NCCCc2[nH]c3ccc(Cl)cc3c21,-0.13
21,Cc1[nH]c2ccc(C(=O)NC3CCC(C(N)=O)CC3)cc2c1C (centres unmarked),-0.12
22,Sc1nc(C2CC2)n(-c2ccccc2)n1,-0.13
23,CC(C)C(N)CN (centres unmarked),0.06

# 2 of these compounds in a different format:
row	Structure (SMILES)	TSA(with NAD+) / Primary screening (TSA) / delta Tm (K)
5	Cc1nc(C)c(C(=O)C2=C(O)C(=O)N(CCCN3CCOCC3)C2c2ccc(Cl)cc2)s1 (centres unmarked)	0.05
8	O=C(CCOc1ccccc1)Nc1ccc(N2CCN(Cc3ccccc3)CC2)cc1	0.09

# Following part.

row,Structure (SMILES),TSA(with NAD+) / Primary screening (TSA) / delta Tm (K)
1,COc1ccc(-c2nn(-c3ccccc3)cc2C=C2C(=O)NC(=S)NC2=O)cc1OC,-0.11
2,CCOC(=O)C(C#N)C1(C#N)CCCC1 (centres unmarked),-0.26
3,COc1cccc2cc(C(=O)C3=C(O)C(=O)N(CCCN4CCOCC4)C3c3ccc(F)cc3)oc12 (centres unmarked),0.02
4,CCN(Cc1cccs1)C(=O)CSc1ncnc2c1cnn2C,-0.11
5,NC(=O)c1c(NC(=O)C2CCN(c3ncc(C(F)(F)F)cc3Cl)CC2)sc2c1CCC2,0.16
6,Cc1nc(-c2ccc(CCNC(=O)c3ccc(NC(N)=O)cc3)s2)cs1,0.08
7,O=C(CNC(=O)c1cccs1)NCC(=O)NC1CC1,-0.08
8,CCOc1ccc(C(=O)N[C@H](C(=O)Nc2nc[nH]c2C(N)=O)C(C)C)cc1,-0.01
9,COc1cccc(C(=O)C2=C(O)C(=O)N(CCCN3CCOCC3)C2c2ccccn2)c1 (centres unmarked),-0.11
10,CCOCCCOC(=O)c1ccc2[nH]c(C(F)F)nc2c1,-0.16
11,CC(NC(=O)CCn1ccc2ccccc21)C(=O)NC1CCCC1 (centres unmarked),-0.03
12,CCc1ccccc1N1CC(C(=O)Nc2cccc(S(=O)(=O)Nc3ccc(OC)cc3)c2)CC1=O (centres unmarked),0.09
13,Cc1cnc(C(=O)OCC(=O)N(c2ccccc2)C(C)C)cn1,-0.19
14,Cc1cc(C)nc(NNC(=O)c2cc(-c3ccco3)nc3c(C(N)=O)ncn23)n1,0.06
15,COc1cccc(NC(=O)C(Oc2ccc(C(N)=O)cc2)c2ccccc2)c1 (centres unmarked),-0.01
16,CCn1c(C(=O)Nc2cccc(CN3C(=O)CNC3=O)c2)cc2ccccc21,-0.02
17,CN(c1cccc(Cl)c1)S(=O)(=O)c1cccc(C(=O)Oc2ccc3c4c(c(=O)oc3c2)CCC4)c1,0.09
18,Cn1c(-c2ccccc2)c(C(=O)CCl)c2ccccc21,-0.13
19,NC(=O)C1CCCN(c2ncnc3sc4c(c23)CCCC4)C1 (centres unmarked),-0.15
20,COc1ccc2nc3ccccc3nc2c1N,-0.13
21,CN(C)c1noc(C2CC(=O)N(c3ccc(Cl)c(F)c3)C2)n1 (centres unmarked),-0.09
22,Cc1nc2ccccc2nc1SCc1cc(=O)n2ccsc2n1,-0.21
23,Cc1ccc(NC(=O)COC(=O)c2ccc(-n3nnc4ccccc43)c([N+](=O)[O-])c2)cc1C,0.35

row,Structure (SMILES),TSA(with NAD+) / Primary screening (TSA) / delta Tm (K)
1,Clc1ccc(C(SCc2ncc(-c3ccccc3)o2)c2ccccc2)cc1 (centres unmarked),-0.01
2,CCCOc1ccc(C(=O)C2=C(O)C(=O)N(CCCN3CCOCC3)C2c2ccccc2F)cc1 (centres unmarked),-0.22
3,CC(=O)N1N=C(c2ccc(NS(C)(=O)=O)cc2)CC1c1ccc(F)c(Cl)c1 (centres unmarked),-0.16
4,CCN(Cc1ccccc1)C(=O)CSc1nncn1-c1ccccc1,0.01
5,Cc1ccc(C23CC4CC(CC(C(=O)OC(C)C(=O)Nc5ccc(S(N)(=O)=O)cc5)(C4)C2)C3)cc1C (centres unmarked),0.43
6,COc1ncnc2c1CN(Cc1c[nH]nc1-c1ccc(F)cc1)CC2,-0.18
7,Cn1c(N)c(N2CCNCC2)c(=O)n(C)c1=O,-0.11
8,O=C(O)C1CC(=O)N(c2ccc(S(=O)(=O)Nc3c(F)cccc3F)cc2)C1 (centres unmarked),-0.02
9,NCCC1CC1,0.15
10,CN1CCc2cc(NC(=O)COc3ccc(N(C)S(=O)(=O)c4cccs4)cc3)ccc21,-0.11
11,NC(=O)c1ccc(CSc2nc(CC(=O)O)cs2)cc1,-0.09
12,C=CCn1c(SCc2nc(C)c(-c3ccc(Cl)cc3)o2)nnc1-c1ccco1,-0.03
13,Cn1cc(C(N)=O)cc1C(=O)OC1CCc2ccc(F)cc21 (centres unmarked),-0.04
14,Cc1nc(CN2CCN(Cc3c(-c4ccccc4)nc4sccn34)CC2)cs1,-0.01
15,Cc1ccc(C)n1-c1sc2c(c1C#N)CCC(C)C2 (centres unmarked),-0.28
16,C/C(CC12CC3CC(CC(C3)C1)C2)=N/NC1=NS(=O)(=O)c2ccccc21,0.05
17,C=CCOc1ccc(C(=O)C2=C(O)C(=O)N(CCCN3CCOCC3)C2c2ccccc2F)cc1 (centres unmarked),0.07
18,COc1ccc(N(C)S(=O)(=O)c2cccc(C(=O)Nc3ccc4c(C)cc(=O)oc4c3)c2)cc1,-0.09
19,COc1ccc(Nc2ccc3nnnn3n2)cc1OCC1CCCO1 (centres unmarked),-0.06
20,Cc1ccc(-c2nc(CC(=O)NNC(=O)c3cccs3)cs2)c(C)c1,-0.01
21,CCC1CCc2[nH]c3ccc(C)cc3c2C1 (centres unmarked),-0.01
22,Cn1c(=O)c2c(ncn2CCCC(=O)Nc2nc(-c3ccc4c(c3)CCC(=O)N4)cs2)n(C)c1=O,-0.08
23,O=C(Nc1ccc(F)c(F)c1F)c1ccncc1,-0.01

row,Structure (SMILES),TSA(with NAD+) / Primary screening (TSA) / delta Tm (K)
1,CCCNC(=O)C1CCCN1c1cc(C(F)(F)F)nc2ccccc12 (centres unmarked),-0.03
2,Cc1ccc2oc(=O)cc(N3C[C@H]4C[C@H](C3)c3cccc(=O)n3C4)c2c1,-0.03
3,CNC(=O)Cn1ccc(C(F)(F)F)n1,-0.03
4,Cc1c(C(=O)C2=C(O)C(=O)N(CCCN3CCOCC3)C2c2ccccc2)cnn1-c1ccccc1 (centres unmarked),-0.12
5,Cc1ccc(N(C)S(=O)(=O)c2cccc(C(=O)Nc3c(C)cccc3C(C)C)c2)cc1,0.06
6,Cn1c(=O)[nH]c(=O)c2c1nc(N1CCC(C(N)=O)CC1)n2CCCSc1nc2ccccc2s1,-0.03
7,CC(NC(=O)c1nccnc1N)c1ccc(NC(=O)C2CC2)cc1 (centres unmarked),-0.01
8,O=C(CN1CCCC2(CC=CCC2)C1)N1CCc2[nH]c3ccccc3c2C1 (centres unmarked),0.06
9,COc1ccc(C(=O)C2=C(O)C(=O)N(CCN3CCOCC3)C2c2ccc(C)o2)cc1OC (centres unmarked),-0.14
10,COC(=O)c1ccc2[nH]c3c(c2c1)CNCC3,-0.24
11,CC(=O)c1ccc(N2CCN(c3ncnc4c3oc3ccccc34)CC2)c(F)c1,0.02
12,CN(C)C(C)(C)CNc1ncnc2ccsc12,-0.01
13,C#CCNC(=O)CNC(=O)c1ccc2c(=O)[nH]c(S)nc2c1,0.06
14,COc1ccc([N+](=O)[O-])cc1NC(=O)C(C)N(NC(=O)COc1cccc(Br)c1)C(C)C(=O)Nc1cc([N+](=O)[O-])ccc1OC (centres unmarked),-0.06
15,NNc1ncnc2c1cnn2-c1ccc(Cl)cc1,-0.01
16,OCCCNc1nc2ccccc2s1,-0.32
17,Cc1onc(-c2ccccc2)c1-c1nnc(CSc2ncnc3sc4c(c23)CCC(C)C4)o1 (centres unmarked),-0.12
18,Cc1ccccc1C(=O)N1CCC(C(=O)NC2CCCCCC2)CC1,-0.11
19,N#Cc1ccc(OCCN2CCCC2C(N)=O)cc1 (centres unmarked),-0.22
20,Cc1ccc(N(C)S(=O)(=O)c2cccc(C(=O)Nc3nc4ccccc4[nH]3)c2)cc1,-0.06
21,c1nc(N2CCOCC2)c2sccc2n1,0.05
22,COc1cccc(CN(C(=O)CN2C(=O)c3cccc(N)c3C2=O)C23CC4CC(CC(C4)C2)C3)c1,0.05
23,COc1cccc(C(C)CC(=O)N2CCC(Oc3ccnc(C(N)=O)c3)CC2)c1 (centres unmarked),-0.05

# Structural class, the entries above containing a nitro group on carbon
row,Structure (SMILES),TSA(with NAD+) / Primary screening (TSA) / delta Tm (K)
14,Cc1nc(-c2ccc([N+](=O)[O-])cc2)cs1,-0.03
23,Cc1ccc(NC(=O)COC(=O)c2ccc(-n3nnc4ccccc43)c([N+](=O)[O-])c2)cc1C,0.35
14,COc1ccc([N+](=O)[O-])cc1NC(=O)C(C)N(NC(=O)COc1cccc(Br)c1)C(C)C(=O)Nc1cc([N+](=O)[O-])ccc1OC (centres unmarked),-0.06
